# Measurements published in patent publication US10174348B2, “Bacteria engineered for ester production” (priority 2013, dated 2019).
# How the values were obtained:
# E. coli [1] = experiment: Isobutyl isobutyrate degradation by bacteria; type: cell-based; conditions: for Remaining isobutyl isobutyrate / formation of isobutanol: 1 g L^−1 isobutyl isobutyrate added, 24 h, 30° C.
# E. coli [2] = experiment: Isobutyl acetate degradation by bacteria; type: cell-based; conditions: for Remaining isobutyl acetate / formation of isobutanol: 1 g L^−1 isobutyl acetate added, 24 h, 30° C.
structure (smiles),measurement,setting,value
"CC(C)COC(=O)C(C)C [Isobutyl isobutyrate, isobutyl isobutyrate]",Remaining isobutyl isobutyrate,E. coli [1]; AL704,98.8 ± 0.18%
same,formation of isobutanol,E. coli [1]; AL704,1.2 ± 0.18%
same,Remaining isobutyl isobutyrate,E. coli [1]; No cell,99.3 ± 0.22%
same,formation of isobutanol,E. coli [1]; No cell,0.7 ± 0.22%
same,Remaining isobutyl isobutyrate,E. coli [1]; Strain 9,98.5 ± 0.48%
same,formation of isobutanol,E. coli [1]; Strain 9,1.5 ± 0.48%
same,Remaining isobutyl isobutyrate,E. coli [1]; Strain 16,97.5 ± 0.48%
same,formation of isobutanol,E. coli [1]; Strain 16,2.5 ± 0.48%
same,Remaining isobutyl isobutyrate,E. coli [1]; Strain 18,98.8 ± 0.40%
same,formation of isobutanol,E. coli [1]; Strain 18,1.2 ± 0.40%
same,degradation of isobutyl isobutyrate by E. coli,E. coli [1]; after 24 h,no degradation
CC(=O)OCC(C)C [isobutyl acetate],Remaining isobutyl acetate,E. coli [2]; JCL260,99.9 ± 0.023%
same,formation of isobutanol,E. coli [2]; JCL260,0.14 ± 0.027%
same,Remaining isobutyl acetate,E. coli [2]; No cell,99.9 ± 0.031%
same,formation of isobutanol,E. coli [2]; No cell,0.12 ± 0.031%
same,Remaining isobutyl acetate,E. coli [2]; Strain 4,99.8 ± 0.023%
same,formation of isobutanol,E. coli [2]; Strain 4,0.22 ± 0.023%
same,degradation of isobutyl acetate by E. coli JCL260,E. coli [2]; incubated with isobutyl acetate for 24 h,No degradation
